Here are results for three molecules from paper PMC3663545, “Allosteric Activation of Trypanosomatid Deoxyhypusine Synthase by a Catalytically Dead Paralog*^([image sbox.jpg])^♦” (The Journal of Biological Chemistry, 2013).

No constants are given. Whether binding was seen depends on the method and setting. For part of these data: In cells and extracts the contact can be indirect. Some results given as binding are weak or reduced against the parent protein; the word gives no strength. Tags and fused reporters may be left off the sequences shown.

The target of assay [1] is T1, AU1-TbDHSc (T. brucei deoxyhypusine synthase, catalytic subunit, N-terminally AU1-tagged) (T. brucei) (UniProt Q38BX0).
T1 sequence: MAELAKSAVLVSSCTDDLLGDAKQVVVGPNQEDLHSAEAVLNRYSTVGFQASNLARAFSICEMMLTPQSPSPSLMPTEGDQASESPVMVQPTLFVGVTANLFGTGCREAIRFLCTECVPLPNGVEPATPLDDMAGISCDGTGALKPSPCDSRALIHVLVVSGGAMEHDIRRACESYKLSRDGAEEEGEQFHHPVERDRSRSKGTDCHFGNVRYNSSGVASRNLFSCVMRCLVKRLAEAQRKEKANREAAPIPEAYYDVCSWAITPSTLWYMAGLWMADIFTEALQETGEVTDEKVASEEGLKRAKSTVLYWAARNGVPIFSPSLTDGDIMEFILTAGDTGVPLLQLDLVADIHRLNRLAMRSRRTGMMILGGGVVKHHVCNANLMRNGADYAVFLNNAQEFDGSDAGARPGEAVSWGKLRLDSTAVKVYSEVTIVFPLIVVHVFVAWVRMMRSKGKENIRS
As to the kind of experiment: co-IP; soluble lysate (50 ug protein, 80 mM NaCl, 10 mM Tris pH 7.5) of BSF T. brucei co-expressing AU1-TbDHSc and FLAG-TbDHSp; anti-AU1 or anti-FLAG M2 antibody 12 h at 4 °C, Dynabeads protein A; Western blot with anti-AU1 and anti-FLAG. Background: A western blot detects proteins with antibodies after separation by electrophoresis.

Assay [2] deals with T2, TbDHSc (T. brucei deoxyhypusine synthase, catalytic subunit), recombinant, expressed as His6-SUMO-TbDHSc (T. brucei) (UniProt Q38BX0).
T2 sequence: T1 sequence
Kind of assay: SEC; tagless TbDHSp co-expressed with His6-SUMO-TbDHSc in E. coli; co-purified by Ni2+-affinity, SUMO tag removed with Ulp1, then Superdex 200 Prep Grade in 50 mM Tris-HCl pH 7.5, 200 mM NaCl, 1 mM DTT; peak fraction analysed by SDS-PAGE; both purified.

The target in assay [3] is T3, FLAG-TbDHSp (T. brucei deoxyhypusine synthase prozyme (activating) subunit, N-terminally FLAG-tagged) (T. brucei) (UniProt Q4GZD1).
T3 sequence: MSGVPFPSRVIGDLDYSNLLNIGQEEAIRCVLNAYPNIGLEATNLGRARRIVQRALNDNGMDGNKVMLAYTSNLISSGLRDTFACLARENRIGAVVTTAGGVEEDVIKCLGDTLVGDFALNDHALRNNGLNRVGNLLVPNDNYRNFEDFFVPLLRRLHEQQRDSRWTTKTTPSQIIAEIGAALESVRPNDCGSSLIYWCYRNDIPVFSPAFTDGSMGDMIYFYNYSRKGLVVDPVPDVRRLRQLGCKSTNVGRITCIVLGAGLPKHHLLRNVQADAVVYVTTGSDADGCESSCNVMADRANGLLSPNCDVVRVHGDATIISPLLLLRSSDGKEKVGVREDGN
Kind of assay: co-IP; soluble lysate (50 ug protein, 80 mM NaCl, 10 mM Tris pH 7.5) of BSF T. brucei co-expressing AU1-TbDHSc and FLAG-TbDHSp; anti-AU1 or anti-FLAG M2 antibody 12 h at 4 °C, Dynabeads protein A; Western blot with anti-AU1 and anti-FLAG.

B1: FLAG-TbDHSp (T. brucei deoxyhypusine synthase prozyme (activating) subunit, N-terminally FLAG-tagged) (protein, UniProt Q4GZD1 1-342)
chain: T3 sequence
As to B1, the binding result in assay [1] was “binds”.

B2: TbDHSp (T. brucei deoxyhypusine synthase prozyme (activating) subunit), recombinant, untagged (natural protein, UniProt Q4GZD1 1-342, looked up)
chain: T3 sequence
notes: T. brucei deoxyhypusine synthase prozyme subunit (TbDHSp), catalytically dead paralog, TriTrypDB Tb927.1.870; open reading frame cloned untagged into the HindIII-KpnI site of pT7-FLAG-MAT-Tag-2 with a stop codon inserted; 37 kDa on SDS-PAGE; the vector's C-terminal tag was removed by insertion of a stop codon; also called tagless TbDHSp; untagged TbDHSp
In the case of B2, the binding result in assay [2] is recorded as “binds”.

B3: AU1-TbDHSc (T. brucei deoxyhypusine synthase, catalytic subunit, N-terminally AU1-tagged) (enzyme, UniProt Q38BX0 1-461)
chain: T1 sequence
As to B3, in assay [3], the binding result is “binds”.
